Assay results as given in doi:10.1101/2024.01.29.577409.
These are yes or no findings as the source states them, for the method shown. For some of these results: Binding seen in cells or lysates may run through a third protein. Some entries that bind do so weakly or less than the wild type.

The chains behind the UniProt entries cited, without tags or fusion partners. Residues count along the entry.
UniProt Q9D7S9: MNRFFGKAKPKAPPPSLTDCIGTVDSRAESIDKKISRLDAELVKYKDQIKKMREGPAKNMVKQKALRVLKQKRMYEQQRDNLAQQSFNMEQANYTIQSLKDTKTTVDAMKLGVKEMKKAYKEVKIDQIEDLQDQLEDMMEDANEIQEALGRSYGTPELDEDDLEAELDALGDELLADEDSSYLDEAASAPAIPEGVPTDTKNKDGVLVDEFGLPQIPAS
UniProt Q09472: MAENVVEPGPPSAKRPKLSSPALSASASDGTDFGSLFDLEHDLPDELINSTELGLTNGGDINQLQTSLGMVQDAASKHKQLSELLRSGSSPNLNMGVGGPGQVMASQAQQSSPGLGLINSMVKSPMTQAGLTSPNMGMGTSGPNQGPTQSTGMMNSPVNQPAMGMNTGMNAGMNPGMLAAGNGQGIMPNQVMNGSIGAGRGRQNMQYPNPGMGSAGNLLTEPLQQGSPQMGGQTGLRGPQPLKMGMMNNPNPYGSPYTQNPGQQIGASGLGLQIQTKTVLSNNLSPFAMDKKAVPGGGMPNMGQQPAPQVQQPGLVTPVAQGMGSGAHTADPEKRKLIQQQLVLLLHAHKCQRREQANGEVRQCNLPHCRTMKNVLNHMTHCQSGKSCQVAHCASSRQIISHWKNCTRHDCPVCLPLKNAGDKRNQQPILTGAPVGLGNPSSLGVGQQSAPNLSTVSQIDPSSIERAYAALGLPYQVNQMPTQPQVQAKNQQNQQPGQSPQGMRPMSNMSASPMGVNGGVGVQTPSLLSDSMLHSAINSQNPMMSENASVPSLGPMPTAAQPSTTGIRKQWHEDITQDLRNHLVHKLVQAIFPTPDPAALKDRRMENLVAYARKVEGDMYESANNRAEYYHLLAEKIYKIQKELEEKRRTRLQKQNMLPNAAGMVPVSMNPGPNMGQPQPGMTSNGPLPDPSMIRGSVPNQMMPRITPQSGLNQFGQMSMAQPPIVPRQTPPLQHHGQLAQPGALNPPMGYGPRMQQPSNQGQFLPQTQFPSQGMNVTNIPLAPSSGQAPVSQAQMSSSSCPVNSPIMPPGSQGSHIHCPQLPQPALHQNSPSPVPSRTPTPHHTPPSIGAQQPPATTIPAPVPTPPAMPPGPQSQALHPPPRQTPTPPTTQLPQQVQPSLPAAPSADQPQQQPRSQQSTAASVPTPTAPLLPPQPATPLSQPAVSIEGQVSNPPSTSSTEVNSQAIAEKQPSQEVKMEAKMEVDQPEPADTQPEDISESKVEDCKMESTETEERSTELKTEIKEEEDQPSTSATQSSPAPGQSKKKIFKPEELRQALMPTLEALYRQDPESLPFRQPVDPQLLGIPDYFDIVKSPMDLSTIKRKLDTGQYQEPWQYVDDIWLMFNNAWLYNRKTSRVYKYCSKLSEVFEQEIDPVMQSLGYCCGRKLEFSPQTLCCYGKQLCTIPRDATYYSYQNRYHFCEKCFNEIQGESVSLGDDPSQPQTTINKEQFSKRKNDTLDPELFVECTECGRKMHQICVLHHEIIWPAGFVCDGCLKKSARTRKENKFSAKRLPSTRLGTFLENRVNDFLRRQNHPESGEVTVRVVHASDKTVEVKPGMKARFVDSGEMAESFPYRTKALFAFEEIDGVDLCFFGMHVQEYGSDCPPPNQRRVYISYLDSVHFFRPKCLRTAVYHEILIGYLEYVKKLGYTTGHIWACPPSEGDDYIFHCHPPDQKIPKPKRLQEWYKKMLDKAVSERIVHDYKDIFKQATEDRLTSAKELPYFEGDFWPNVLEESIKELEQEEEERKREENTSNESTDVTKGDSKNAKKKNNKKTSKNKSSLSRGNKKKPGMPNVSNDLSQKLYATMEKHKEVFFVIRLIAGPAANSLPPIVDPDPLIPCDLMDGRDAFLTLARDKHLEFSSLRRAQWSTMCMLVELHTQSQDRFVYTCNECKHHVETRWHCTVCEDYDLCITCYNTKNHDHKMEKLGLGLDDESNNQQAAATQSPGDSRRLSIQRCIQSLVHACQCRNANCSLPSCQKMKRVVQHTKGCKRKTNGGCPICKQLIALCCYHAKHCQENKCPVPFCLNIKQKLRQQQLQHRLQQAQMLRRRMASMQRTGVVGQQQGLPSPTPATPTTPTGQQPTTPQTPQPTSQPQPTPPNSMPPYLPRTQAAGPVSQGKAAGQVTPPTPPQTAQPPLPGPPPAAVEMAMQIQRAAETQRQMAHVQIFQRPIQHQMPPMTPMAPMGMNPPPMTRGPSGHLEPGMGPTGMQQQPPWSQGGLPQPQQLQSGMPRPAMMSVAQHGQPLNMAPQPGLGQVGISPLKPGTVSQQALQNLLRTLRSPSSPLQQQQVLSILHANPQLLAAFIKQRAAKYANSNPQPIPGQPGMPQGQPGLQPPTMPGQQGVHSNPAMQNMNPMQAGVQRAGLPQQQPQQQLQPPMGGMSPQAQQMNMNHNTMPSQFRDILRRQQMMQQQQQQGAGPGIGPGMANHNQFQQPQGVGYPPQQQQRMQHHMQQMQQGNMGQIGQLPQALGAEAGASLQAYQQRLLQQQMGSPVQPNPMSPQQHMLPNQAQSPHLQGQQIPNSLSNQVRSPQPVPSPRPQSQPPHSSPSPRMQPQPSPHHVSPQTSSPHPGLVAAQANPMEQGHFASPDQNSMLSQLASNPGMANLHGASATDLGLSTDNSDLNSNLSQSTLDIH
UniProt Q9NZZ3: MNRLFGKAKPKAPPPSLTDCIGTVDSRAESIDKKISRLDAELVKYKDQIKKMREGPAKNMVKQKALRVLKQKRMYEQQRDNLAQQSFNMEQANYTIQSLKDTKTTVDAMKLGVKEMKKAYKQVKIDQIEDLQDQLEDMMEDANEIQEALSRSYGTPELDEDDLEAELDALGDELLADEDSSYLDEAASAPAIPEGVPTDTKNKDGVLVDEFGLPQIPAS
UniProt P01106: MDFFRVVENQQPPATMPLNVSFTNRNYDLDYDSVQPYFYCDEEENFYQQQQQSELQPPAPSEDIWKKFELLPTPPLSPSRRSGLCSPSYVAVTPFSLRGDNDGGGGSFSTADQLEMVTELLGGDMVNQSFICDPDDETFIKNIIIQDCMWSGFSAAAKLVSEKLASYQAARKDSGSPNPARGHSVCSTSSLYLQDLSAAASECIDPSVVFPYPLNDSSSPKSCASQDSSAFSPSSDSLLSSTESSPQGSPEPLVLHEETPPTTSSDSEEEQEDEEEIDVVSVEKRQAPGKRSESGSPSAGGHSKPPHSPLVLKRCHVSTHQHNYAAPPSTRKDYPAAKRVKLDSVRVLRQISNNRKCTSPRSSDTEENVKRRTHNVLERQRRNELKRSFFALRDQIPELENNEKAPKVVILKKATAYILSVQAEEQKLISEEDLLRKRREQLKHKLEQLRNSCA
UniProt P46531, residues 1754-2555: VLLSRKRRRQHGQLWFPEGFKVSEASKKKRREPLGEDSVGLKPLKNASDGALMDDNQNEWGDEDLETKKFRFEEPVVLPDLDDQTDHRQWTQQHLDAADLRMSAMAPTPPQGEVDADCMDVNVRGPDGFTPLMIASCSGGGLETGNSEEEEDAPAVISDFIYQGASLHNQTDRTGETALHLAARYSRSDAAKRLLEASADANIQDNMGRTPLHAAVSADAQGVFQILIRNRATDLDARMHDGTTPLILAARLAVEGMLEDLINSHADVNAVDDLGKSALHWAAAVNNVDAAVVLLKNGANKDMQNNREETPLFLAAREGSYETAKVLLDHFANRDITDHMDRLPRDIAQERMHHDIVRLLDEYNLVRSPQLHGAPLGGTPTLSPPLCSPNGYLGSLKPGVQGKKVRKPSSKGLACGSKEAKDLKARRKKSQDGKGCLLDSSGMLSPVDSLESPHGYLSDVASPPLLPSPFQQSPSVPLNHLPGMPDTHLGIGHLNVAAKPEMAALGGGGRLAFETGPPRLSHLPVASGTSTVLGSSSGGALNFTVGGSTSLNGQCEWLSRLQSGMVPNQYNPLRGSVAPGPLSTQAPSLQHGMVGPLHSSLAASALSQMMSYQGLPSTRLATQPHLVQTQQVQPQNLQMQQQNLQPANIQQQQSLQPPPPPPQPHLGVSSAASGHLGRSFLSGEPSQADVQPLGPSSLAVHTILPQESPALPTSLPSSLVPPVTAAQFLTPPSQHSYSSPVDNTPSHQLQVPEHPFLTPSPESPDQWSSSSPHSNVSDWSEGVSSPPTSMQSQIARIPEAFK

What was measured:
[1] = target: hemagglutinin (HA)-tagged CHMP5 (UniProt Q9D7S9); experiment: co-IP; anti-HA immunoprecipitation (isotype IgG as control) from fractionated CUTLL1 cells transduced with HA-tagged CHMP5, nuclear lysates; Protein G Dynabeads, antibody overnight at 4°C; Western blot
recombinant p300 = recombinant p300 (UniProt Q09472); experiment: co-IP; cell-free: recombinant p300-FLAG and CHMP5-His mixed 1:1 in TBS overnight at 4°C, anti-FLAG antibody and Protein G Dynabeads, washed with TBS + 0.2% NP-40; both purified

For “endogenous p300 (from UniProt Q09472 1-2414) (enzyme)”, the binding [1] was “binds”.

“recombinant CHMP5 (from UniProt Q9NZZ3 1-219)” was tested, and the binding (recombinant p300) was “binds”.

In the case of MYC (from UniProt P01106 1-454), the binding [1] is reported as “no binding”.

With “intracellular NOTCH1 domain (ICN1) (from UniProt P46531 1754-2555) (domain or fragment)” the binding [1] was “no binding”.
